# Library screening results

Values are the deposited “Percent Effect”, in %.
The controls that fix the scale are not given in the record; negative values are as filed.
Compounds were drawn at random from those tested, without regard to their results.
Two or more numbers in one place are separate tests of the same structure; such repeats can differ widely.

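Viability assay of Plasmodium falciparum sporozoites; the read-out is not stated. The concentration is filed as 10 mM, unlikely as a test dose, so the dose is not known. Higher reads as lower viability (inferred: compounds with an IC50 in retests scored well above the rest). Strong results were mostly tested again. Size under these conditions: about 34,000 compounds, about 280 of them at 50% or above in at least one test.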

| Compound | effect |
|---|---|
| `CCC(=O)N1CCCCC1c1nc(O)c2c(n1)CN(C(=O)C1CC1)CC2` (stereo not given) | -5.892% |
| `CC(C)CCC(=O)N(C)CC(=O)Nc1ccc(Br)cn1` | 3.286% |
| `COc1cccc(C2CCCN2CCCNS(C)(=O)=O)c1` (stereo not given) | 14.89% |
| `CO[C@H]1CN(C(=O)c2cccc(C)n2)CC[C@@]12CCCO2` | 5.263% |
| `O=C(NC1CCCN(c2ncccn2)C1)c1ccoc1` (stereo not given) | -0.5637% |
| `CCc1nc(CN(C)C(=O)c2ccc(OCCCOC)nc2)cs1` | -8.578% |
| `COCC(=O)N1CCN(C)C(=O)C(Cc2ccccc2-c2cccs2)C1` (stereo not given) | 10.12% |
| `CCC1c2cccn2CCN1C(=O)c1ccc2nonc2c1` (stereo not given) | 1.12% |
| `Cc1nc(C2CCCN2Cc2ccc(S(=O)(=O)N(C)C)o2)no1` (stereo not given) | 0.2417% |
| `Cn1nc2c(cc1=O)CN(Cc1nnc(-c3ccc(F)cc3)o1)CC2` | 9.501% |
| `[H][C@@]12CS(=O)(=O)C[C@]1([H])N(Cc1ncc[nH]1)CCN2Cc1ccc(CC)cn1` | -1.81% |
| `CS(=O)(=O)NCC1CCCCN1C(=O)c1ccc(Br)s1` (stereo not given) | -17.63% |
| `CCCc1nc(CN2CCOC(CNc3cccnn3)C2)cs1` (stereo not given) | 10.72% |
| `CS(=O)(=O)NCc1nnc2n1CCN(Cc1ccc(F)cc1)C2` | -3.007% |
| `Cc1cc(S(=O)(=O)N2CCCc3cc(F)cc(F)c32)sc1C(=O)O` | -0.6438% |
| `Cn1cc(N2CCC(NC(=O)c3c(F)cccc3F)C2=O)cn1` (stereo not given) | 5.306% |
| `CN1CC2(CCN(C(=O)COc3ccc(Cl)cc3Cl)CC2)OC1=O` | -9.386% and -17.88% |
| `COCc1cc(CNc2cnn(CC(F)F)c2)ccc1OC` | 1.435% |
| `CC(C)C(=O)N1CCC(C)(c2cc[nH]n2)CC1` | 5.12% |
| `[H][C@@]12CC[C@H](Oc3ccccc3Cl)[C@]1([H])CN(C(=O)CNC(C)=O)C2` | -4.197% |
| `Cc1nn(C)c(C)c1C1CCCN1C(=O)CCc1ccco1` (stereo not given) | 5.148% |
| `CCc1nccn1C1CCCN(C(=O)c2cnn3ccc(C)nc23)C1` (stereo not given) | -9.12% |
| `Cc1nc(CN(C)C2CCN(CCc3cnn(C)c3)C2)no1` (stereo not given) | 13.93% |
| `Cn1ccnc1CN1CCC2(CC(=O)N(c3ccc4c(c3)OCO4)C2)C1.O=C(O)C(F)(F)F` (stereo not given) | -1.128% |
| `CCc1[nH]ncc1C(=O)N1CCCC(n2nc(C)nc2C)C1` (stereo not given) | 4.509% |
| `Cc1nnc(NC(=O)CN(C)CC2CCCN2c2cccnn2)s1` (stereo not given) | -7.215% |
| `CC(=O)N(Cc1noc(C)n1)C1CCN(Cc2ccncc2Cl)C1` (stereo not given) | -4.773% |
| `Cc1cc(CN2CCN(C(=O)NC(C)c3ccc(C)o3)CC2)on1` (stereo not given) | 2.284% |
| `CC(=O)N1CCC(C)(c2nc(C)no2)CC1` | -17.52% |
| `CC(SCCNS(=O)(=O)c1cnn(C)c1)c1cccs1` (stereo not given) | -9.434% |
| `O=C(c1cccs1)N1CCC2(C1)c1ccccc1S(=O)(=O)N2CC1CC1` (stereo not given) | -21.34% |
| `CC(=O)Nn1ccc2c(nnc3c(-c4ccc(F)cc4)cnn32)c1=O` | -4.118% |
| `Cn1ccnc1CN1CCN(CC(O)c2cccc(F)c2)CC1` (stereo not given) | -5.318% |
| `COCC1CC2(CCN(Cc3ccc(C)o3)CC2)CN1C(C)C.O=C(O)C(F)(F)F.O=C(O)C(F)(F)F` (stereo not given) | 12.09% |
| `CCNS(=O)(=O)c1ccc(C)c(C(=O)N(C)Cc2ccco2)c1` | -1.344% |
| `[H][C@]12CN(C(=O)N(C)C)CCN1C[C@H](c1ccccc1)[C@H]2C(=O)OCC` | -30.52% |
| `CC(C)OCc1nn(C)c2c1CCN(CC1CC1)C2.O=C(O)C(F)(F)F` | -0.5199% |
| `CCN(C)c1ncnc2c1CCN(Cc1ccc(OC)cc1)CC2.O=C(O)C(F)(F)F.O=C(O)C(F)(F)F` | -4.139% |
| `Cc1cn2c(n1)CCC(NC(=O)c1csc(C(C)C)n1)C2` (stereo not given) | -4.728% |
| `Clc1ccccc1Cn1cc(CNC2CCc3ncnn3C2)cn1` (stereo not given) | 6.212% |
| `CCn1ccnc1CN1CCN(CC(O)CN2CCOCC2)CC1` (stereo not given) | 7.248% |
| `COc1ccc(C(=O)N2Cc3cc(C)ccc3OCC2CN(C)C)cc1.Cl` (stereo not given) | 2.421% |
| `Cc1nc(Nc2nccs2)cc(C2CCCN2)n1.Cl` (stereo not given) | -7.871% |
| `CN(C)c1ccc(CCNC(=O)NCc2ccc(N(C)C)nc2)cc1` | 3.68% |
| `CCN1CCC(NC(=O)CN2CCCC2Cn2nc(C)nc2C)CC1` (stereo not given) | 5.551% |
| `COCC(=O)NCCc1ccc(Cl)s1` | 7.898% |
| `COCC(=O)NC1CC2(CCN(CCF)CC2)Oc2ccccc21.O=C(O)C(F)(F)F` (stereo not given) | 19.67% |
| `COCCN(Cc1ccc(F)cc1C#N)CC(F)(F)F` | -8% |
| `CC(C)c1ncc(CN2CCCC(CO)C2)cn1` (stereo not given) | -1.303% |
| `O=C(CCc1ccccn1)N1CCCN(C(=O)CC2CCCC2)CC1` | 8.197% |
| `Cc1cn2c(n1)CCC(NC(=O)CCC1CC1)C2` (stereo not given) | -11.27% |
| `CC(Cn1cccn1)n1cnc2ccc(F)cc2c1=O` (stereo not given) | -17.38% |
| `[H][C@]12CCN(Cc3nccs3)[C@@]1([H])C[C@H](C(=O)N1CCN(C)CC1)O2` | 0.9025% |
| `c1ccc2oc(CN3CCCC(Cn4cncn4)C3)nc2c1` (stereo not given) | -5.63% |
| `COc1cccc(S(=O)(=O)N2CCOC(C)(C(N)=O)C2)c1` (stereo not given) | -1.54% |

The last 3 entries again:

Result for [H][C@]12CCN(Cc3nccs3)[C@@]1([H])C[C@H](C(=O)N1CCN(C)CC1)O2 was 0.9025%.
Result for c1ccc2oc(CN3CCCC(Cn4cncn4)C3)nc2c1 (stereo not given) was -5.63%.
Result for COc1cccc(S(=O)(=O)N2CCOC(C)(C(N)=O)C2)c1 (stereo not given) was -1.54%.

The values are deposited in ChEMBL (CHEMBL3988442, “University of Dundee, Small-Polar-MMV Screening Library” (2021)).